Measured values: the supplement of paper PMC10849652
The other results are listed elsewhere or left out.

Amino acid sequences for entries named in this document (tags omitted). A change or cut given only in a name is not applied to a line headed by its entry.
UniProt Q8N9V3: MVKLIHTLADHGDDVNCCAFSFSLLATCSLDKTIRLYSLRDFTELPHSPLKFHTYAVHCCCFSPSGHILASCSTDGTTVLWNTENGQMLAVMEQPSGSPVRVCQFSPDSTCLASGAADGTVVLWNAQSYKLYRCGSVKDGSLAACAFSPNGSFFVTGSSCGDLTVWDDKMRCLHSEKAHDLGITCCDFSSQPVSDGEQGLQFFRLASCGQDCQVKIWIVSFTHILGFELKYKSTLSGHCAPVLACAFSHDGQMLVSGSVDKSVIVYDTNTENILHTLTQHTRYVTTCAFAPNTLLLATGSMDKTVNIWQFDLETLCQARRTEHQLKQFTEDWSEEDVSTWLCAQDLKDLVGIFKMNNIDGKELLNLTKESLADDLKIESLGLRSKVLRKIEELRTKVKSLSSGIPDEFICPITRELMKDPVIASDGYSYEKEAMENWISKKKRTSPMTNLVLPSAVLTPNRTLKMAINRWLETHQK
UniProt Q8N2E2: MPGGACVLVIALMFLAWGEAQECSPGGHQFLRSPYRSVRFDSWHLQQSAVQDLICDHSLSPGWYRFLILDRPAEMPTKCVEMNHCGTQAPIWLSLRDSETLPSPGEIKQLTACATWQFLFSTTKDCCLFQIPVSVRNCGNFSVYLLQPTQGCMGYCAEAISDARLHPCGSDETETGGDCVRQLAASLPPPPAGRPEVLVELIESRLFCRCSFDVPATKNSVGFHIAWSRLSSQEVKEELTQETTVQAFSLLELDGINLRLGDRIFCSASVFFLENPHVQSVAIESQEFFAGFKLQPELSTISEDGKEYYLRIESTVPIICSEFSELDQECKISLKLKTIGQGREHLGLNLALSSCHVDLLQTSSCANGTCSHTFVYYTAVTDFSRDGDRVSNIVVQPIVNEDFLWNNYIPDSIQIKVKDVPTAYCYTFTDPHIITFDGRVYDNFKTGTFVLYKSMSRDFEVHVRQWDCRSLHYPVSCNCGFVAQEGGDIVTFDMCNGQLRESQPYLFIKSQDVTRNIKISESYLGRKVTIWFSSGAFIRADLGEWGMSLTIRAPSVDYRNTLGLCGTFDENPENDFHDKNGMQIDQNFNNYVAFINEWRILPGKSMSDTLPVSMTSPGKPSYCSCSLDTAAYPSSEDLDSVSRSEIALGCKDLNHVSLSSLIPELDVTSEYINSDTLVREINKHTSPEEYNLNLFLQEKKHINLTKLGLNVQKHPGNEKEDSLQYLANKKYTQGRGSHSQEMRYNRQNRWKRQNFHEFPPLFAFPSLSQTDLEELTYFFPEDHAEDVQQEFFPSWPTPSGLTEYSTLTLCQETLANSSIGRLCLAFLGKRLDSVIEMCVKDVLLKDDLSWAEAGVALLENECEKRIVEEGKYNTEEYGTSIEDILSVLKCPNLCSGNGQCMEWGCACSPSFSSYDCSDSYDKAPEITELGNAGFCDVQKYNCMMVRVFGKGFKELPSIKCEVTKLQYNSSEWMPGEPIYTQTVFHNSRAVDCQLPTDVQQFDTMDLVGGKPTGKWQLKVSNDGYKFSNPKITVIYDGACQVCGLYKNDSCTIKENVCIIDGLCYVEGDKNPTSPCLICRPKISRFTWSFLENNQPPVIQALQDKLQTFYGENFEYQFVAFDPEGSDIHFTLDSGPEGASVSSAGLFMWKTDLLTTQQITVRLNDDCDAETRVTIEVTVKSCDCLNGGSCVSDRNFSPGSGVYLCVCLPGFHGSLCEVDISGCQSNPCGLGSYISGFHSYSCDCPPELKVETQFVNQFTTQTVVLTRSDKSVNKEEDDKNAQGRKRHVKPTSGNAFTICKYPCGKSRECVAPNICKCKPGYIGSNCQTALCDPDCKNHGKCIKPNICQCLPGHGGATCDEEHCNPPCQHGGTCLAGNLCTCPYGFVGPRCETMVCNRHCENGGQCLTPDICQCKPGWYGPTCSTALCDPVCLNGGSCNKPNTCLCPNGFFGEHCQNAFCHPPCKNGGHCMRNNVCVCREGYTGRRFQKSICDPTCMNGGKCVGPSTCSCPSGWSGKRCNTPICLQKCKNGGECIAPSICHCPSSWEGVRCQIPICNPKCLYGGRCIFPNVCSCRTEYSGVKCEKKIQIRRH
UniProt P45880: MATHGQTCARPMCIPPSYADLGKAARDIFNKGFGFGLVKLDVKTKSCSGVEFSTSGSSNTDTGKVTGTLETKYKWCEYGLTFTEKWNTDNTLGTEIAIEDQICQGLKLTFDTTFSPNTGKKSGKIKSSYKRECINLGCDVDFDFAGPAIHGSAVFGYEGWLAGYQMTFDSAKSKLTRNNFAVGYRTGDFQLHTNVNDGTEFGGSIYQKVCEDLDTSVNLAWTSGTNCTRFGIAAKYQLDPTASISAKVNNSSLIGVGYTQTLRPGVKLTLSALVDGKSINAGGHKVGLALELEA
UniProt Q9BRG1: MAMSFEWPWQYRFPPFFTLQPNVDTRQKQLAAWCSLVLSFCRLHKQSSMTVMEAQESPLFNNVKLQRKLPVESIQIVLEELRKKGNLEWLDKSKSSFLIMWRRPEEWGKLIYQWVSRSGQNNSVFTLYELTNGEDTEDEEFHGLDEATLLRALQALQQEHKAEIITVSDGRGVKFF
UniProt Q9UNX4: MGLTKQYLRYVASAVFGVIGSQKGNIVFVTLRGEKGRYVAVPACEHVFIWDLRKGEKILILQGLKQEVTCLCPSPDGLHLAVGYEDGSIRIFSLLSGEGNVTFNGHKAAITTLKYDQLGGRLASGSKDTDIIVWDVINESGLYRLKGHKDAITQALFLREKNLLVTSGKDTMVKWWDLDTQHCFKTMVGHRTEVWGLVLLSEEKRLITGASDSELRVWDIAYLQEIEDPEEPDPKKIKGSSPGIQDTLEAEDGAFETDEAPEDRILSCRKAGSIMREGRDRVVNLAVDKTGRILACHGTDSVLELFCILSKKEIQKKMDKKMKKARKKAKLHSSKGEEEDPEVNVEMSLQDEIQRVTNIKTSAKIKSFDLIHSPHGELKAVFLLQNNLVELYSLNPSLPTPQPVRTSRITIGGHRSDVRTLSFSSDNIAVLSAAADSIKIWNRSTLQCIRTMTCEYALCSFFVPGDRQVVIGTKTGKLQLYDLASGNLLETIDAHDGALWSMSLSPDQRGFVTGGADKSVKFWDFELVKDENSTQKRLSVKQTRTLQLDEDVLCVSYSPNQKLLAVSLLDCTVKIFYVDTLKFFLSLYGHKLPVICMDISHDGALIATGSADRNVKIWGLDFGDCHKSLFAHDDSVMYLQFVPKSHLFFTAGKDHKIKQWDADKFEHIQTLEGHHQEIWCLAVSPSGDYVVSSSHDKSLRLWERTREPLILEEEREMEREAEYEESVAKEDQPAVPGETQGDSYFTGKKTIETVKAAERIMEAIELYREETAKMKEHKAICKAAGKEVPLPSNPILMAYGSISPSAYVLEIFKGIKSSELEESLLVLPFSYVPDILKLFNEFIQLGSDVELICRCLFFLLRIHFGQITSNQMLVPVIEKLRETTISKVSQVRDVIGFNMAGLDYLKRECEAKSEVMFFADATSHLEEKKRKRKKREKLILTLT
UniProt Q9HBM0: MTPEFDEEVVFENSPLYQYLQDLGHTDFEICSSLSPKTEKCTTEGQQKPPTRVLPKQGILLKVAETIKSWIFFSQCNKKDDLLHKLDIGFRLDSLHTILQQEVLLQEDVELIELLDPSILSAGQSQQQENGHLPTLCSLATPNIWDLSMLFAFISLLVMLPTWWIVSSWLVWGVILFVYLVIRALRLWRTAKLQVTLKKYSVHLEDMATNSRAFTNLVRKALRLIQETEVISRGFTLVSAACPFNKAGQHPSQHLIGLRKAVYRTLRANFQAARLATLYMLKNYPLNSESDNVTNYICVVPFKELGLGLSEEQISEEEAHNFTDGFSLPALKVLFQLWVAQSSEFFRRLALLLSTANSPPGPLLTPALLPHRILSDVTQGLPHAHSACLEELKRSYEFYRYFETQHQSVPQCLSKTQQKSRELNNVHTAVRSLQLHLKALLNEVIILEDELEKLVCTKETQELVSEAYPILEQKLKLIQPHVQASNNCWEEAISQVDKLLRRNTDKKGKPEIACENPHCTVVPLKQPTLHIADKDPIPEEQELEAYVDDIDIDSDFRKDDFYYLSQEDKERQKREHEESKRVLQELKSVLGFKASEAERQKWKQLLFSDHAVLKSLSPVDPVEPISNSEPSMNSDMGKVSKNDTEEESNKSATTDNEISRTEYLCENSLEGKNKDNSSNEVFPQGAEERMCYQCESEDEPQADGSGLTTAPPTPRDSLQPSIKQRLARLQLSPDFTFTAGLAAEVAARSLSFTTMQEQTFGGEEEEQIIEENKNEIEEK
UniProt Q6PJI9: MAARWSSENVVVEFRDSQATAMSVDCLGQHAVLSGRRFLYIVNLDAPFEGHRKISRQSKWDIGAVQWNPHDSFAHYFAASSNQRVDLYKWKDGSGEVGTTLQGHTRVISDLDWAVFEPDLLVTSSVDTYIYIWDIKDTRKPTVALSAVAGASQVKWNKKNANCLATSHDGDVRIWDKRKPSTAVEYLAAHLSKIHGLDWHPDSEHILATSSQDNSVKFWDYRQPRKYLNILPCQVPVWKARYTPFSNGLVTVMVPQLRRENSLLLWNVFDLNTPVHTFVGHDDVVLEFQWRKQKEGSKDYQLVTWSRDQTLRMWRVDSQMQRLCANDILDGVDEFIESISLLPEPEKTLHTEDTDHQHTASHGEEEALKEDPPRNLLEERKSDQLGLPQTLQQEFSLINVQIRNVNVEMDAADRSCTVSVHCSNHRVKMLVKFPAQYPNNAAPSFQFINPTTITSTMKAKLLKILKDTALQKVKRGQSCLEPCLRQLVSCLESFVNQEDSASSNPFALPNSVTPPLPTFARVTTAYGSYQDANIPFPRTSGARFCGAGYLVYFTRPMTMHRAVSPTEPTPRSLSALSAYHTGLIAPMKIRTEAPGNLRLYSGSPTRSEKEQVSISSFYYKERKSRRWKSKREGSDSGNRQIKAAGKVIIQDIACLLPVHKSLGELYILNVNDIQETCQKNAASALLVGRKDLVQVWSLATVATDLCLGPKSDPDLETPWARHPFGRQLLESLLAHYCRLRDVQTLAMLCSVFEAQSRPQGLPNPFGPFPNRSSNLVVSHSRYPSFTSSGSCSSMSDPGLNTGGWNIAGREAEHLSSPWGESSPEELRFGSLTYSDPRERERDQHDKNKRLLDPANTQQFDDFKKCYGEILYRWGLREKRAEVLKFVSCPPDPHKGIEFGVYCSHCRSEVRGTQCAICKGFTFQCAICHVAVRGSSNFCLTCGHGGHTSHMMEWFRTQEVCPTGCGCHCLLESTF
UniProt Q8TF74: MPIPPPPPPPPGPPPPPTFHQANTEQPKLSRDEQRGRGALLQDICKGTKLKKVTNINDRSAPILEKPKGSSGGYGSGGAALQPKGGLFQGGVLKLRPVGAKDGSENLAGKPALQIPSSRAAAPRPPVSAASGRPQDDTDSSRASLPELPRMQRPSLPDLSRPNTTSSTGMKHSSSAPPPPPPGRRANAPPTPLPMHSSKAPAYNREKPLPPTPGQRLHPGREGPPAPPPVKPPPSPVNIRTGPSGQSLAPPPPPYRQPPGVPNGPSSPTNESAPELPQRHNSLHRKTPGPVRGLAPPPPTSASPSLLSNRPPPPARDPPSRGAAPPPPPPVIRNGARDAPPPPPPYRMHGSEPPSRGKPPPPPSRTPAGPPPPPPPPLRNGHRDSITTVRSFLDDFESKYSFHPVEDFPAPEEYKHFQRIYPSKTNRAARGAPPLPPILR
UniProt Q86VN1: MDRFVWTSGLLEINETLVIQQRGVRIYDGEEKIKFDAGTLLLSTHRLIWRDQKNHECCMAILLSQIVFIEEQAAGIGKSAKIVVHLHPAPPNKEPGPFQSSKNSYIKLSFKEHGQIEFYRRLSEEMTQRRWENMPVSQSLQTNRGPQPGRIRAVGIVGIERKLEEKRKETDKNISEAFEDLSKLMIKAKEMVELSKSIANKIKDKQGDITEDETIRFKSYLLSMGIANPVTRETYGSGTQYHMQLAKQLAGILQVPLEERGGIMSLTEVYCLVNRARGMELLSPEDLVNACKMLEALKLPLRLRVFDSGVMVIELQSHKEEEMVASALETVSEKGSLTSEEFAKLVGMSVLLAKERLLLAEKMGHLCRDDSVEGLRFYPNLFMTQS

Experiments:
Assay in all cases: log2 fold change, soluble protein after heating vs DMSO (PISA); higher = thermal stabilisation; K562 cells, 10 uM, 30 min; active = over 0.2 and 3.5 SD of the protein, either way, in both replicates (recomputed)
[1] = compound: CS(=O)(=O)c1ccc(-c2cnc(N)c(C(=O)Nc3ccccc3)n2)cc1
Method in brief: (§1)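 Soluble protein was quantified by TMTpro 16plex LC-MS/MS after channel sums were equalised. It was obtained as the supernatant after 21,000xg for 90 min from pooled aliquots of K562 cells (2×10^6 cells/mL, 10 μM compound, 30 min) heated for 3 min across 48°C-58°C and extracted in PBS with 0.5% NP-40 at 4°C. Thermal stability values are relative to control samples and come from duplicates. They are given as log2 fold changes.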

crizotinib = compound: C[C@@H](Oc1cc(-c2cnn(C3CCNCC3)c2)cnc1N)c1c(Cl)ccc(F)c1Cl [crizotinib]
Method in brief: as §1

[2] = compound: C[C@@H]1COCCN1C2=NC(=NC(=C2)C3(CC3)S(=O)(=O)C)C4=C5C=CNC5=CC=C4
Method in brief: as §1

[3] = compound: C[C@H](C1=CC=C(C=C1)C(=O)NC2=C3C=CNC3=NC=C2)N
Method in brief: as §1

duvelisib = compound: C[C@H](Nc1ncnc2nc[nH]c12)c1cc2cccc(Cl)c2c(=O)n1-c1ccccc1 [duvelisib]
Method in brief: as §1

gandotinib = compound: Cc1cc(Nc2cc(CN3CCOCC3)c3nc(C)c(Cc4ccc(Cl)cc4F)n3n2)n[nH]1 [gandotinib]
Method in brief: as §1

tozasertib = compound: Cc1cc(Nc2cc(N3CCN(C)CC3)nc(Sc3ccc(NC(=O)C4CC4)cc3)n2)n[nH]1 [tozasertib]
Method in brief: as §1

[4] = compound: Cc1cc(SCc2sc(-c3ccc(C(F)(F)F)cc3)nc2C)ccc1OCC(=O)O
Method in brief: as §1

doramapimod = compound: Cc1ccc(-n2nc(C(C)(C)C)cc2NC(=O)Nc2ccc(OCCN3CCOCC3)c3ccccc23)cc1 [doramapimod]
Method in brief: as §1

ispinesib = compound: Cc1ccc(C(=O)N(CCCN)[C@@H](c2nc3cc(Cl)ccc3c(=O)n2Cc2ccccc2)C(C)C)cc1 [ispinesib]
Method in brief: as §1

bafetinib = compound: Cc1ccc(NC(=O)c2ccc(CN3CC[C@H](N(C)C)C3)c(C(F)(F)F)c2)cc1Nc1nccc(-c2cncnc2)n1 [bafetinib]
Method in brief: as §1

[5] = compound: Cc1cccc(CC(=O)N2CCc3c2ccc(-c2cn(C)c4ncnc(N)c24)c3F)n1
Method in brief: as §1

nilotinib = compound: Cc1cn(-c2cc(NC(=O)c3ccc(C)c(Nc4nccc(-c5cccnc5)n4)c3)cc(C(F)(F)F)c2)cn1 [nilotinib]
Method in brief: as §1

[6] = compound: Cc1nc(Nc2n[nH]c3c2CN(C(=O)N[C@H](CN(C)C)c2ccccc2)C3(C)C)c2sccc2n1
Method in brief: as §1

dasatinib = compound: Cc1nc(Nc2ncc(C(=O)Nc3c(C)cccc3Cl)s2)cc(N2CCN(CCO)CC2)n1 [dasatinib]
Method in brief: as §1

[7] = compound: Cc1ncc(-c2ccnc(Nc3ccc(S(C)(=O)=O)cc3)n2)n1C(C)C
Method in brief: as §1

[8] = compound: Cn1cc(-c2ccc3c(c2)CCN3C(=O)Cc2cccc(C(F)(F)F)c2)c2c(N)ncnc21
Method in brief: as §1

[9] = compound: Cn1cc(-c2ccc3nnc(C(F)(F)c4ccc5ncccc5c4)n3n2)cn1
Method in brief: as §1

tipifarnib = compound: Cn1cncc1[C@@](N)(c1ccc(Cl)cc1)c1ccc2c(c1)c(-c1cccc(Cl)c1)cc(=O)n2C [tipifarnib]
Method in brief: as §1

mubritinib = compound: FC(F)(F)c1ccc(/C=C/c2nc(COc3ccc(CCCCn4ccnn4)cc3)co2)cc1 [mubritinib]
Method in brief: as §1

Measured: log2 fold change

WDSUB1 (UniProt Q8N9V3)
inactive: [1] 0.082 | crizotinib 0.039 | [2] 0.048 | [3] -0.095 | duvelisib 0.121 | gandotinib 0.011 | tozasertib -0.022 | [4] -0.009 | doramapimod -0.023 | ispinesib 0.009 | bafetinib -0.048 | [5] -0.036 | nilotinib -0.025 | [6] -0.025 | dasatinib -0.016 | [7] 0.012 | [8] 0.047 | [9] 0.065 | tipifarnib -0.023 | mubritinib 0.048

VPS13D (UniProt Q5THJ4)
inactive: [1] 0.114 | crizotinib -0.162 | [2] -0.053 | [3] 0.252 | duvelisib -0.023 | gandotinib -0.16 | tozasertib -0.037 | [4] 0.01 | doramapimod 0.142 | ispinesib -0.258 | bafetinib 0.052 | [5] -0.042 | nilotinib -0.014 | [6] 0.017 | dasatinib 0.009 | [7] -0.003 | [8] 0.048 | [9] -0.125 | tipifarnib -0.002 | mubritinib 0.028

VWDE (UniProt Q8N2E2)
inactive: [1] 0.016 | crizotinib 0 | [2] -0.036 | [3] 0.064 | duvelisib -0.078 | gandotinib 0.086 | tozasertib 0.085 | [4] 0.071 | doramapimod 0.051 | ispinesib 0.006 | bafetinib 0.023 | [5] -0.108 | nilotinib -0.033 | [6] 0.029 | dasatinib -0.016 | [7] -0.002 | [8] -0.087 | [9] -0.047 | tipifarnib 0.103 | mubritinib 0.032

VDAC2 (UniProt P45880)
inactive: [1] 0.017 | crizotinib 0.027 | [2] -0.009 | [3] -0.05 | duvelisib 0.023 | gandotinib 0.006 | tozasertib -0.014 | [4] -0.026 | doramapimod -0.021 | ispinesib -0.005 | bafetinib -0.038 | [5] -0.022 | nilotinib 0.02 | [6] 0.009 | dasatinib 0.033 | [7] 0 | [8] 0.016 | [9] -0.001 | tipifarnib 0.045 | mubritinib 0.009

VPS25 (UniProt Q9BRG1)
inactive: [1] 0.004 | crizotinib 0.052 | [2] 0.156 | [3] -0.042 | duvelisib 0.108 | gandotinib -0.118 | tozasertib 0.024 | [4] 0.009 | doramapimod 0.028 | ispinesib 0.072 | bafetinib -0.063 | [5] 0.04 | nilotinib -0.034 | [6] -0.023 | dasatinib -0.001 | [7] -0.037 | [8] 0 | [9] 0.043 | tipifarnib -0.042 | mubritinib 0.044

WDR3 (UniProt Q9UNX4)
inactive: [1] 0.05 | crizotinib -0.087 | [2] -0.278 | [3] 0.399 | duvelisib -0.073 | gandotinib 0.016 | tozasertib 0.116 | [4] 0.078 | doramapimod 0.223 | ispinesib -0.265 | bafetinib 0.077 | [5] 0.012 | nilotinib 0.016 | [6] -0.125 | dasatinib 0.062 | [7] -0.086 | [8] -0.285 | [9] -0.063 | tipifarnib 0.003 | mubritinib -0.171

WDR12 (UniProt Q9GZL7)
inactive: [1] 0 | crizotinib 0.079 | [2] 0.039 | [3] -0.026 | duvelisib 0.065 | gandotinib -0.016 | tozasertib -0.014 | [4] 0.005 | doramapimod -0.019 | ispinesib 0.032 | bafetinib -0.048 | [5] -0.033 | nilotinib -0.009 | [6] 0 | dasatinib 0.036 | [7] -0.031 | [8] 0.011 | [9] -0.03 | tipifarnib -0.01 | mubritinib -0.009

VPS26A (UniProt O75436)
inactive: [1] 0.001 | crizotinib -0.066 | [2] 0.001 | [3] -0.076 | duvelisib 0.009 | gandotinib -0.059 | tozasertib 0.007 | [4] 0.059 | doramapimod 0.002 | ispinesib -0.003 | bafetinib 0.066 | [5] 0.076 | nilotinib -0.04 | [6] 0.049 | dasatinib -0.043 | [7] -0.023 | [8] 0.047 | [9] 0.005 | tipifarnib -0.04 | mubritinib 0.042

Reprinted at random: 2 records from the list, in no set order.
WDSUB1 (UniProt Q8N9V3)
inactive: [1] 0.082 | crizotinib 0.039 | [2] 0.048 | [3] -0.095 | duvelisib 0.121 | gandotinib 0.011 | tozasertib -0.022 | [4] -0.009 | doramapimod -0.023 | ispinesib 0.009 | bafetinib -0.048 | [5] -0.036 | nilotinib -0.025 | [6] -0.025 | dasatinib -0.016 | [7] 0.012 | [8] 0.047 | [9] 0.065 | tipifarnib -0.023 | mubritinib 0.048

VDAC2 (UniProt P45880)
inactive: [1] 0.017 | crizotinib 0.027 | [2] -0.009 | [3] -0.05 | duvelisib 0.023 | gandotinib 0.006 | tozasertib -0.014 | [4] -0.026 | doramapimod -0.021 | ispinesib -0.005 | bafetinib -0.038 | [5] -0.022 | nilotinib 0.02 | [6] 0.009 | dasatinib 0.033 | [7] 0 | [8] 0.016 | [9] -0.001 | tipifarnib 0.045 | mubritinib 0.009

Continued.

VEZT (UniProt Q9HBM0)
inactive: [1] -0.015 | crizotinib 0.03 | [2] 0.159 | [3] -0.046 | duvelisib -0.041 | gandotinib -0.077 | tozasertib -0.077 | [4] 0.068 | doramapimod 0.05 | ispinesib -0.225 | bafetinib -0.188 | [5] 0.035 | nilotinib -0.061 | [6] -0.013 | dasatinib -0.096 | [7] 0.009 | [8] -0.039 | [9] 0.312 | tipifarnib -0.043 | mubritinib 0.053

WDR59 (UniProt Q6PJI9)
inactive: [1] -0.032 | crizotinib 0.074 | [2] -0.405 | [3] 0.012 | duvelisib 0.004 | gandotinib 0.069 | tozasertib -0.004 | [4] -0.059 | doramapimod -0.057 | ispinesib -0.11 | bafetinib -0.017 | [5] -0.111 | nilotinib -0.042 | [6] -0.094 | dasatinib -0.022 | [7] -0.239 | [8] -0.038 | [9] 0.042 | tipifarnib 0.129 | mubritinib -0.027

VKORC1L1, A0A3B3ISV4
inactive: [1] -0.101 | crizotinib 0.078 | [2] 0.07 | [3] -0.041 | duvelisib 0.173 | gandotinib -0.049 | tozasertib 0.002 | [4] -0.024 | doramapimod 0.018 | ispinesib 0.197 | bafetinib -0.071 | [5] 0.03 | nilotinib -0.007 | [6] 0.016 | dasatinib -0.001 | [7] -0.088 | [8] 0.012 | [9] 0.268 | tipifarnib 0.155 | mubritinib 0.041

VPS13A (UniProt Q96RL7)
inactive: [1] 0.03 | crizotinib -0.05 | [2] 0.007 | [3] 0.003 | duvelisib 0.059 | gandotinib -0.015 | tozasertib -0.021 | [4] -0.008 | doramapimod 0.01 | ispinesib -0.024 | bafetinib -0.045 | [5] 0.027 | nilotinib -0.021 | [6] 0.008 | dasatinib -0.005 | [7] -0.006 | [8] -0.016 | [9] 0.022 | tipifarnib 0.002 | mubritinib 0.008

WIPF2 (UniProt Q8TF74)
inactive: [1] 0.021 | crizotinib -0.005 | [2] 0.04 | [3] -0.06 | duvelisib 0.01 | gandotinib -0.027 | tozasertib -0.051 | [4] -0.022 | doramapimod -0.012 | ispinesib 0.007 | bafetinib -0.056 | [5] -0.021 | nilotinib 0.017 | [6] -0.031 | dasatinib -0.021 | [7] -0.013 | [8] 0.003 | [9] 0.002 | tipifarnib 0.063 | mubritinib 0.042

VPS36 (UniProt Q86VN1)
inactive: [1] -0.044 | crizotinib -0.028 | [2] 0.055 | [3] -0.038 | duvelisib 0.027 | gandotinib -0.104 | tozasertib -0.002 | [4] -0.014 | doramapimod 0.071 | ispinesib -0.015 | bafetinib 0.018 | [5] 0.031 | nilotinib -0.039 | [6] 0.015 | dasatinib -0.042 | [7] -0.009 | [8] 0.036 | [9] 0.002 | tipifarnib -0.047 | mubritinib 0.026

WDR73 (UniProt Q6P4I2)
inactive: [1] -0.001 | crizotinib 0.047 | [2] 0.067 | [3] -0.04 | duvelisib 0.027 | gandotinib -0.094 | tozasertib 0.02 | [4] -0.002 | doramapimod -0.01 | ispinesib 0.031 | bafetinib -0.022 | [5] -0.025 | nilotinib -0.023 | [6] -0.039 | dasatinib 0.02 | [7] 0.004 | [8] 0.027 | [9] 0.024 | tipifarnib 0.003 | mubritinib 0.007

WRNIP1 (UniProt Q96S55)
inactive: [1] 0.014 | crizotinib -0.31 | [2] 0.101 | [3] -0.032 | duvelisib 0.017 | gandotinib -0.216 | tozasertib -0.047 | [4] 0.141 | doramapimod -0.047 | ispinesib -0.29 | bafetinib -0.093 | [5] -0.093 | nilotinib -0.236 | [6] -0.086 | dasatinib -0.51 | [7] -0.131 | [8] 0.057 | [9] 0.133 | tipifarnib 0.064 | mubritinib -0.244
